# Primary screen of a compound library

By UniProt entry, the sequences of proteins in these tests, tags left out.
UniProt P9WPC5, whole entry: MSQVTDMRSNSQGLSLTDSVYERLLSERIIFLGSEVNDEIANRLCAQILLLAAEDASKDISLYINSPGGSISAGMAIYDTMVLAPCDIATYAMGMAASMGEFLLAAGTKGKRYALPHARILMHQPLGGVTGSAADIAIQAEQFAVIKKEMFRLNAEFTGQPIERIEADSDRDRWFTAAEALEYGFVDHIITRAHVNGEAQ
UniProt P9WPC3, whole entry partner: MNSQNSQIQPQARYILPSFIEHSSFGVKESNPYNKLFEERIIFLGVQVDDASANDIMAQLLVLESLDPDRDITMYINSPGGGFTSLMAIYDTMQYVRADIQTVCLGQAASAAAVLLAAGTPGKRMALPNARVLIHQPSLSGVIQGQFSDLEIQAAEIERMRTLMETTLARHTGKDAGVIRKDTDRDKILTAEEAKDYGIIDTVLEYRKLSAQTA
UniProt P9WNZ1, whole entry: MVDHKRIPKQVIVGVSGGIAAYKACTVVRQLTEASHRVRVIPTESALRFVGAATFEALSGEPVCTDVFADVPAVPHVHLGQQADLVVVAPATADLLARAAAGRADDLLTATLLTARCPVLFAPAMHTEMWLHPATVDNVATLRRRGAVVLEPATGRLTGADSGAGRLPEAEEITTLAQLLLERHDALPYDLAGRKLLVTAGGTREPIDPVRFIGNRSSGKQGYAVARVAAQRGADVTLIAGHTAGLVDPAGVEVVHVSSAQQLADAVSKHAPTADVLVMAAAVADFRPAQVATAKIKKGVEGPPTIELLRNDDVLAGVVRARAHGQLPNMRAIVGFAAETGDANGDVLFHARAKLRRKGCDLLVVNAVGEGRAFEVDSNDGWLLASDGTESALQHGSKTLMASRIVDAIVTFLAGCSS

Source: ChEMBL document CHEMBL3988442, “University of Dundee, Small-Polar-MMV Screening Library” (2021).

ClpP1P2: 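ClpP1P2, Mycobacterium tuberculosis (UniProt P9WPC5 and UniProt P9WPC3). Protease assay of ClpP1P2, read by the AMC dye that it sets free. Compounds at 50 µM. Direction is inferred from only a few compounds that gave an IC50; most scored high, so higher reads as stronger inhibition. Most other retested compounds had strongly negative values. Of about 69,000 compounds tested this way, about 10 (0.015%) reached 50% or more in at least one test.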
CoaBC: 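Enzyme assay of CoaBC with a phosphate dye (Biomol Green) read at 650 nm. Target: Coenzyme A biosynthesis protein CoaBC, Mycobacterium tuberculosis (UniProt P9WNZ1). Compounds at 30 µM. Direction is inferred from only a few compounds that gave an IC50; most scored high, so higher reads as stronger inhibition. Most strong results did not repeat in a second test. About 67,000 compounds were tested under these conditions; 0.06% (about 40) showed 50% or more at least once.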

The filed quantity is “Percent Effect” (%). The controls that fix the scale are not given in the record; negative values are as filed. Compounds were drawn at random from those tested, without regard to their results.

Compound | ClpP1P2 | CoaBC
Cc1oc(C(C)C)cc1C(=O)N1C[C@H]2CC[C@@H]1CN(C(=O)N(C)C)C2 | -2.525% | 3.271%
COCc1cc(O)nc(C2CCCN(Cc3cccc(Cl)c3Cl)C2)n1 (stereo not given) | -7.127% | 0.9709%
CC(NCc1cnc(C2CCC2)s1)c1cccc(-n2ccnc2)c1 (stereo not given) | -5.748% | -4.481%
CC(Cn1cccn1)NC(=O)N1CCN(Cc2ccco2)CC1 (stereo not given) | -23.45% | 2.678%
Cc1cccc(CSc2ncc(Br)c(C(=O)O)n2)c1 | -16.47% | -5.085%
O=C(c1ccc(N2CCCC2)nn1)N1CCCC(n2ccnc2)C1 (stereo not given) | -4.746% | 0.9126%
O=C(CCC1CCCC1)NCCn1nc(C2CCNC2)c2cccnc21 (stereo not given) | -3.401% | 1.554%
Cc1nc(C)n(CC2CN(CCOc3ccc(C#N)cc3)CCO2)n1 (stereo not given) | -28.75% | 1.567%
CCc1cnc(N2CCc3ncnc(N4CCN(C)CC4)c3CC2)nc1 | 3.535% | -3.75%
COCC(=O)Nc1nn(Cc2ccc(F)cc2)cc1Cl | -12.68% | -1.869%
Cn1ccc(C(=O)N2CCCC2c2cc(CO)[nH]n2)n1 (stereo not given) | -8.877% | 10.41%
Cc1ccc(C(=O)NC2CCN(Cc3noc(C(C)C)n3)CC2)s1 | -7.248% | 1.269%
COCCO[C@@H]1CCN(c2cc(OC)ncn2)[C@H]1Cc1cnn(C)c1 | -19.53% | 1.961%
COc1ccc(CCC(=O)N(C)CCN2CCOCC2)cc1OC | -13.14% | -1.895%
c1cncc(CNc2cccc(OCCN3CCCCC3)c2)c1 | 0.6695% | 2.899%
O=C1NC[C@H]2CN(Cc3nccs3)CCN12 | -5.109% | 0.6452%
Cc1cc(C)cc(C2(C(=O)NCC3CCN(CC(F)(F)F)C3)CC2)c1 (stereo not given) | -43.29% | 6.003%

Once more, the final 2:

{"compound": "O=C1NC[C@H]2CN(Cc3nccs3)CCN12", "ClpP1P2": -5.109, "CoaBC": 0.6452}
{"compound": "Cc1cc(C)cc(C2(C(=O)NCC3CCN(CC(F)(F)F)C3)CC2)c1", "stereo": "stereo not given", "ClpP1P2": -43.29, "CoaBC": 6.003}